Data source: PubChem BioAssay AID1053208 (Peter MacCallum Cancer Centre, 2014)
Assay: 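Synthetic lethal interactions between gene loss and doxorubicin in osteosarcoma cells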 (primary screen). System: mouse osteosarcoma cells, early-passage culture from an engineered mouse model of fibroblastic bone tumour. Reagent: siRNA pool against mouse genes, 40 nM. Duration: about 120 h (48 h before drug, then 72 h with drug). Treatment: doxorubicin 100 nM for 72 h, roughly 30-40% inhibitory dose. Measurement: 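Viability read as ATP luminescence after 72 h of 100 nM doxorubicin or none, duplicate wells averaged, scaled to non-targeting siRNA, then expressed as robust z-scores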. Scale: viability z-score with doxorubicin and doxorubicin viability vs non-targeting: higher = more viable cells under doxorubicin; viability z-score without drug: higher = more viable cells with knock-down alone; z-score of drug to no-drug ratio: higher = less drug sensitisation by knock-down. Rule for the call: 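Called active if knock-down leaves viability unchanged without drug (z within -2 to 2) but lowers it with doxorubicin (z at or under -2)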.
The whole screen tested about 17,000 reagents; this is an unselected part. Over the whole deposit, 788 (4.7%) are marked active. 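Calls rest on z-score classes alone; an extra cut-off of viability at most 70% of control was not applied to them.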 A number with no mark means an inactive call. Some reagents were tested in more than one well and are listed for each. No sequences are given here.

Target gene	combined z-score class	viability z-score with doxorubicin	viability z-score without drug	z-score of drug to no-drug ratio	doxorubicin viability vs non-targeting
Kdsr (3-ketodihydrosphingosine reductase)	low cell count with doxorubicin only (active)	-2.02	-0.67	-1.57	0.76
Cldn1 (claudin 1)	no change with or without drug	-0.22	-0.51	0.22	0.92
Sowahb (sosondowah ankyrin repeat domain family member B)	no change with or without drug	0.45	1.69	-0.56	0.98
Ccdc91 (coiled-coil domain containing 91)	no change with or without drug	-0.67	0.51	-0.9	0.88
Or8w1 (olfactory receptor family 8 subfamily U member 1)	no change with or without drug	1.12	0.51	0.9	1.04
4931406H21Rik (RIKEN cDNA 4931406H21 gene)	no change with or without drug	1.12	1.18	0.45	1.04
Gpr142 (G protein-coupled receptor 142)	no change with or without drug	-0.11	0.67	-0.45	0.93
Nsfl1c (NSFL1 (p97) cofactor (p47))	low cell count with doxorubicin only (active)	-3.15	-0.84	-2.81	0.66
Niban1 (niban apoptosis regulator 1)	no change with or without drug	0	0.84	-0.45	0.94
Ccdc174 (coiled-coil domain containing 174)	no change with or without drug	0.67	0.84	0.22	1
Bmerb1 (bMERB domain containing 1)	no change with or without drug	-0.9	-1.18	0	0.86
Emc1 (ER membrane protein complex subunit 1)	no change with or without drug	0.67	0.51	0.45	1
Ap5m1 (adaptor-related protein complex 5, mu 1 subunit)	no change with or without drug	-1.01	-1.85	0.34	0.85
H2-Q7 (histocompatibility 2, Q region locus 7)	no change with or without drug	-1.12	-1.18	-0.34	0.84
Ptprc (protein tyrosine phosphatase receptor type C)	no change with or without drug	1.12	0.17	1.12	1.04
Dpep2 (dipeptidase 2)	no change with or without drug	0.67	-0.34	1.12	1
Zbtb20 (zinc finger and BTB domain containing 20)	no change with or without drug	0.79	0.67	0.45	1.01
Ccdc32 (coiled-coil domain containing 32)	no change with or without drug	-0.9	-1.01	-0.11	0.86
Or1j18 (olfactory receptor family 1 subfamily J member 18)	no change with or without drug	0	-1.18	1.01	0.94
Tvp23b (trans-golgi network vesicle protein 23B)	no change with or without drug	-0.45	0.84	-0.9	0.9
Parg (poly (ADP-ribose) glycohydrolase)	no change with or without drug	-0.34	0.51	-0.56	0.91
Zfp316 (zinc finger protein 316)	high cell count without drug only	1.24	2.19	-0.11	1.05
Mak16 (MAK16 homolog)	no change with or without drug	0.79	1.85	-0.34	1.01
Mtx2 (metaxin 2)	no change with or without drug	-1.46	-1.18	-0.67	0.81
Or7g18 (olfactory receptor family 7 subfamily G member 18)	no change with or without drug	1.12	0.17	1.12	1.04
Ccdc86 (coiled-coil domain containing 86)	no change with or without drug	-0.11	-0.51	0.34	0.93

Taken from above.
Gpr142 (G protein-coupled receptor 142), combined z-score class = no change with or without drug
Value for Ptprc (protein tyrosine phosphatase receptor type C) under “combined z-score class”: no change with or without drug
Nsfl1c (NSFL1 (p97) cofactor (p47)), viability z-score without drug = -0.84 (active)
Entry for Dpep2 (dipeptidase 2) in “viability z-score with doxorubicin”: 0.67
Entry for Mak16 (MAK16 homolog) under “viability z-score without drug”: 1.85
Parg (poly (ADP-ribose) glycohydrolase), combined z-score class = no change with or without drug

Next results follow:
Target gene	combined z-score class	viability z-score with doxorubicin	viability z-score without drug	z-score of drug to no-drug ratio	doxorubicin viability vs non-targeting
Lancl1 (LanC (bacterial lantibiotic synthetase component C)-like 1)	no change with or without drug	0	-0.17	0.22	0.94
Syngr2 (synaptogyrin 2)	no change with or without drug	-1.69	-1.85	-0.45	0.79
Pcnt (pericentrin (kendrin))	no change with or without drug	-1.24	-0.84	-0.67	0.83
Slc23a3	no change with or without drug	-0.67	-0.17	-0.45	0.88
Ifnab (interferon alpha B)	no change with or without drug	-0.9	-0.67	-0.34	0.86
Trip13 (thyroid hormone receptor interactor 13)	no change with or without drug	-0.45	-0.51	0	0.9
Etfdh (electron transferring flavoprotein, dehydrogenase)	no change with or without drug	0.79	0.51	0.56	1.01
Hes5 (hes family bHLH transcription factor 5)	no change with or without drug	0.67	1.85	-0.45	1
Mpnd (MPN domain containing)	no change with or without drug	-1.8	-1.52	-0.79	0.78
Coq9 (coenzyme Q9)	no change with or without drug	-0.9	1.35	-1.69	0.86
Mapk4 (mitogen-activated protein kinase 4)	no change with or without drug	1.69	0.67	1.35	1.09
Mex3d (mex3 RNA binding family member D)	no change with or without drug	1.57	0.34	1.46	1.08
Speer2 (spermatogenesis associated glutamate (E)-rich protein 2)	no change with or without drug	1.24	-0.34	1.69	1.05
Pxn (paxillin)	no change with or without drug	0	-0.84	0.67	0.94
Tnfaip3 (tumor necrosis factor, alpha-induced protein 3)	no change with or without drug	0.9	0.51	0.67	1.02
Ubash3a (ubiquitin associated and SH3 domain containing, A)	no change with or without drug	-0.45	0.51	-0.67	0.9
Mylk3 (myosin light chain kinase 3)	no change with or without drug	-1.35	-1.52	-0.34	0.82
Psmd10 (proteasome (prosome, macropain) 26S subunit, non-ATPase, 10)	no change with or without drug	0.9	0.17	0.9	1.02
Elk4 (ETS transcription factor ELK4)	no change with or without drug	-0.9	0.17	-0.9	0.86
Cytip (cytohesin 1 interacting protein)	no change with or without drug	-0.22	0.51	-0.45	0.92
Cmpk1 (cytidine/uridine monophosphate kinase 1)	no change with or without drug	-1.35	-0.84	-0.79	0.82
Cmpk1 (cytidine/uridine monophosphate kinase 1)	no change with or without drug	1.24	0.34	1.12	1.05
Ccdc121rt1 (coiled-coil domain containing 121, retrogene 1)	low cell count with doxorubicin only (active)	-2.47	-1.52	-1.57	0.72
Abca15 (ATP-binding cassette, sub-family A member 15)	no change with or without drug	0.56	0.34	0.45	0.99
